Article PMC10817417, “New L-Rhamnose-Binding Lectin from the Bivalve Glycymeris yessoensis: Purification, Partial Structural Characterization and Antibacterial Activity” (Marine Drugs, 2023)
Values after ≈ are worked out from the molar mass of the structure shown.

System: T1, GYL-R
T1 construct: native lectin purified from hemolymph plasma; mass 30,415 Da (MALDI-TOF), most likely monomer; N-terminus VNNXQNVDXDSWPFE; tryptic peptides LEYASYGR, YLSVVYTCK, LEAVNSVFGDPCVGTYK, EDTLVCELNTDLLSCEER, VNNCQNVDCDSWPFEYK; biotinylated for glycan array
Assay: glycan microarray, fluorescence
Format: binding, Glycymeris yessoensis
Conditions: glycan immobilised on array; biotinylated GYL-R 50 µg/mL, FITC-streptavidin
Source text: glycan microarray, fluorescence on GYL-R

Question: For `C[C@@H]1OC(O)[C@H](O)[C@H](O)[C@H]1O` (stereo partly drawn) [compound 20, L-Rhaα], which “Average RFU” value is on record?
Answer: 64,931 RFU

Question: Which “Average RFU” value does the source give for `CC(=O)N[C@H]1C(O)O[C@H](CO)[C@H](O)[C@@H]1O[C@H]1O[C@H](CO)[C@H](O)[C@H](O)[C@H]1O` (some centres unmarked) [compound 78, Galα1-3GalNAcα] here?
Answer: 1061 RFU

Question: How did the “Average RFU” value turn out when `CC(=O)N[C@H]1C(O)O[C@H](CO)[C@@H](O[C@H]2O[C@H](CO)[C@H](O)[C@H](O)[C@H]2O)[C@@H]1O` (some centres unmarked) [compound 81, Galα1-4GlcNAcβ] was run?
Answer: 17,157 RFU

Question: For `CC(=O)N[C@H]1C(O)O[C@H](CO)[C@@H](O[C@@H]2O[C@H](CO)[C@H](O)[C@H](O)[C@H]2O)[C@@H]1O` (some centres unmarked) [compound 97, Galβ1-4GlcNAcβ], which “Average RFU” value is on record?
Answer: 735 RFU

Question: With `OC[C@H]1O[C@H](O[C@@H]2[C@H](O)[C@@H](O)[C@H](O[C@H]3[C@H](O)[C@@H](O)C(O)O[C@@H]3CO)O[C@@H]2CO)[C@H](O)[C@@H](O)[C@H]1O` (some centres unmarked) [compound 223, Galα1-4Galβ1-4Glcβ] as the compound, how does the “Average RFU” value read?
Answer: 1245 RFU

Question: With `CC(=O)N[C@H]1C(O)O[C@H](CO)[C@@H](O[C@@H]2O[C@H](CO)[C@H](O[C@H]3O[C@H](CO)[C@H](O)[C@H](O)[C@H]3O)[C@H](O)[C@H]2O)[C@@H]1O` (some centres unmarked) [compound 266, Galα1-4Galβ1-4GlcNAcβ] as the compound, how does the “Average RFU” value read?
Answer: 24,853 RFU

Question: How did the “Average RFU” value turn out when `CC(=O)N[C@H]1C(O)O[C@H](CO)[C@@H](O[C@@H]2O[C@H](CO)[C@H](O[C@H]3O[C@H](CO)[C@H](O)[C@H](O)[C@H]3O)[C@H](O)[C@H]2O[C@@H]2O[C@@H](C)[C@@H](O)[C@@H](O)[C@@H]2O)[C@@H]1O` (some centres unmarked) [compound 365, Galα1-4(Fucα1-2)Galβ1-4GlcNAcβ] was run?
Answer: 47,673 RFU

Question: For `CC(=O)N[C@H]1[C@H](OC[C@H]2O[C@@H](O[C@H]3[C@H](O)[C@@H](NC(C)=O)C(O)O[C@@H]3CO)[C@H](O)[C@@H](O)[C@H]2O)O[C@H](CO)[C@@H](O[C@@H]2O[C@H](CO)[C@H](O)[C@H](O)[C@H]2O)[C@@H]1O` (some centres unmarked) [compound 387, Galβ1-4GlcNAcβ1-6Galβ1-4GlcNAcβ], which “Average RFU” value is on record?
Answer: 1829 RFU

Question: For `CC(=O)N[C@H]1C(O)O[C@H](CO)[C@H](O[C@H]2O[C@H](CO)[C@H](O)[C@H](O)[C@H]2O)[C@@H]1O` (some centres unmarked) [compound 815, Galα1-4GalNAcα], which “Average RFU” value is on record?
Answer: 12,517 RFU

Question: `OC[C@H]1O[C@H](O[C@@H]2[C@H](O)[C@@H](O)C(O)O[C@@H]2CO)[C@H](O)[C@@H](O)[C@H]1O` (some centres unmarked) [compound 821, Galα1-4Galβ] was tested. Which “Average RFU” value did it give?
Answer: 2404 RFU

System: T1, GYL-R
Assay: hemagglutination inhibition
Format: cell-based, Glycymeris yessoensis
Conditions: 4 agglutination doses of lectin, 2% erythrocytes, 0.01 M TBS, 1 h; also printed as mM
Source text: hemagglutination inhibition on GYL-R

Question: For `OC[C@H]1OC(O)[C@H](O)[C@@H](O)[C@H]1O` (stereo partly drawn) [D-Galactose], which “MIC ^b” value is on record?
Answer: 156 µg/mL (≈ 866 µM)

Question: Which “MIC ^b” value does the source give for `OC[C@H]1O[C@@H](O[C@H]2[C@H](O)[C@@H](O)C(O)O[C@@H]2CO)[C@H](O)[C@@H](O)[C@H]1O` (some centres unmarked) [Lactose] here?
Answer: 313 µg/mL (≈ 914 µM)

Question: For `OC[C@H]1O[C@H](OC[C@H]2O[C@H](O[C@]3(CO)O[C@H](CO)[C@@H](O)[C@@H]3O)[C@H](O)[C@@H](O)[C@@H]2O)[C@H](O)[C@@H](O)[C@H]1O` [Rafinose], which “MIC ^b” value is on record?
Answer: 625 µg/mL (≈ 1240 µM)

Same assay, conditions: 4 agglutination doses of lectin, 2% erythrocytes, 0.01 M TBS, 1 h; printed mM column reads 0.12, which disagrees with 0.002 mg/mL

Question: With `C[C@@H]1OC(O)[C@H](O)[C@H](O)[C@H]1O` (stereo partly drawn) [L-Rhamnose] as the compound, how does the “MIC ^b” value read?
Answer: 2 µg/mL (≈ 12.2 µM)
